Data taken from publication PMC11900823.
Results are given in words; binding and its absence hold for the method and conditions named. Binding seen in cells or lysates may run through a third protein. Some entries that bind do so weakly or less than the wild type. Sequences can lack the tags named with a protein.

Amino acid sequences for entries named in this document (tags omitted).
UniProt P27986: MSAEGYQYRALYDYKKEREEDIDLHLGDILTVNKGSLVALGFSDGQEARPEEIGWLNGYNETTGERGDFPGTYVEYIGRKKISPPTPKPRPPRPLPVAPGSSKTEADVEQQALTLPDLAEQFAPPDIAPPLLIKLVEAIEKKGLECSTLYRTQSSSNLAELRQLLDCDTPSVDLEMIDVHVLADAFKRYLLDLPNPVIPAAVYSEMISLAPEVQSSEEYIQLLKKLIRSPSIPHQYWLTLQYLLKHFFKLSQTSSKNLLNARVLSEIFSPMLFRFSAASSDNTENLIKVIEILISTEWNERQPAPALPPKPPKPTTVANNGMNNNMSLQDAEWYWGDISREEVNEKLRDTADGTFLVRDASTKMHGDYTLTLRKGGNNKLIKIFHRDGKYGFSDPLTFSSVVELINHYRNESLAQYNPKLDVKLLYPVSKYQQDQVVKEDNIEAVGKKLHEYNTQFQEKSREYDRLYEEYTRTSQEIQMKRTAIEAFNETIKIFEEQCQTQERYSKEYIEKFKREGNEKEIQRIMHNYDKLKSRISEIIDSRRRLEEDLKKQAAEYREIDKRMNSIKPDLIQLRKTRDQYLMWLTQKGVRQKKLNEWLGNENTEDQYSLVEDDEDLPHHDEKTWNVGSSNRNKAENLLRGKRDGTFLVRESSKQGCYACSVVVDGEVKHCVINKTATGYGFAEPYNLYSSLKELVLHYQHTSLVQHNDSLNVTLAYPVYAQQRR

Columns and labels:
[1] = target: T1, BRD7 485-651, Flag-GFP-labeled truncation (UniProt Q9NPI1); assay: co-IP; anti-Flag IP from lysate of 293T cells transfected with BRD7 or its truncations, Western blot
T1 sequence: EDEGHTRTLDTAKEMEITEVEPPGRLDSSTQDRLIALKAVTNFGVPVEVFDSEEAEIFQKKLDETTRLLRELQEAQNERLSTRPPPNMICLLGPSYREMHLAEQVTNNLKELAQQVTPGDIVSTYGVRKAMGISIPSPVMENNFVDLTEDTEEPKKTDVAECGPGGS

[2] = target: T1, BRD7 485-651, Flag-GFP-labeled truncation; assay: co-IP; anti-Flag (DYKDDDDK) IP from total lysate of transfected 5-8F and CNE2 cells, protein A+G agarose, Western blot

binding [1]: binds
binding [2]: binds
Substance: PI3K-p85α (from UniProt P27986 1-724)
